Patent US20220127569A1, “METHODS OF PROMOTING THYMIC EPITHELIAL CELL AND THYMIC EPITHELIAL CELL PROGENITOR DIFFERENTIATION OF PLURIPOTENT STEM CELLS, RESULTING CELLS, AND USES THEREOF” (THE TRUSTEES OF COLUMBIA UNIVERSITY IN THE CITY OF NEW YORK, priority 2019, published 2022)
At least one structure is not confirmed: it was looked up by name or label, or the drawing left a doubt.

System: hESCs
Assay: qPCR gene expression of 3rd PP read-out genes in differentiated hESCs at day 15
Format: cell-based, human
Conditions: protocol #1 (FGF8b+RA) vs #2 (FGF8b, no RA)

Q: With CC1=C(/C=C/C(C)=C/C=C/C(C)=C/C(=O)O)C(C)(C)CCC1 [RA, retinoic acid] as the compound, how does the HOXA3 expression read?
A: essential for HOXA3 expression
